Source: PubChem BioAssay AID540276 (National Center for Advancing Translational Sciences (NCATS), 2011)
In all, about 300,000 compounds went through this assay and about 5,400 (1.8%) were called active. Inconclusive means that the source gave no clear call. Such entries were picked first, then a sample of the others. The call rests on the fitted dose curve; tested in HEK293 cells. Where the call is inconclusive, the potency comes from a doubtful curve fit.

Test: qHTS for inhibitors of binding or entry into cells for Marburg Virus
Settings: Marburg virus pseudotyped entry inhibition, cell reporter; activity change, negative = inhibition: at 37.8 µM (top of the series) unless noted
On the % scale 0 is the no-effect control and ±100 the full control effect; potency means the concentration at half of the fitted maximal effect.

For `CCCc1cc(=O)[nH]c(SCC(=O)Nc2cc(S(=O)(=O)N3CCOCC3)ccc2Cl)n1`, which “activity change, negative = inhibition” value is on record?
Its value is inactive: -9.78% [at 46.1 µM].

With `O=C(Nc1ccccc1Cl)C1CCN(S(=O)(=O)c2cccc3nonc23)CC1` as the compound, how does the Potency read?
The Potency was inconclusive: 35.5 µM [inhibitor, single point].

Which Potency does the source give for `CC(C)Oc1ccc(Nc2ncnc3ccccc23)cc1` here?
Its Potency is inconclusive: 25.1 µM [inhibitor, single point].

With `COc1cc([N+](=O)[O-])ccc1NC(=O)Nc1ccc2c(c1)OCCO2` as the compound, how does the Potency read?
The Potency was inconclusive: 2.82 µM [inhibitor, partial curve, poor fit].

Which Potency does the source give for `CCOc1ccc(S(=O)(=O)NC(C)C(=O)NC2CCCC2)cc1` (stereo not given) here?
The Potency was inconclusive: 7.94 µM [activator, partial curve, poor fit].

For `Cc1ccc(OC(=O)C2CSC3(C)CCC(=O)N23)c(Br)c1` (stereo not given), which “activity change, negative = inhibition” value is on record?
Its value is inactive: -7.18% [at 46.1 µM].

For `O=C(OCC(F)(F)F)c1cccc(COc2ccc3ccccc3c2)c1`, which Potency is on record?
The Potency was active: 1.26 µM.

With `COc1cccc(C2=NOC(C(=O)NC(C)C)C2)c1` (stereo not given) as the compound, how does the “activity change, negative = inhibition” value read?
The value was inactive: 13.6%.

With `O=C(/C=C/c1ccc([N+](=O)[O-])o1)NNC(=O)c1ccc(F)cc1` as the compound, how does the Potency read?
Its Potency is inconclusive: 11.2 µM [inhibitor, partial curve, poor fit].

Which Potency does the source give for `CN(C)S(=O)(=O)N(CC(=O)N1CCC(Cc2ccccc2)CC1)c1ccccc1` here?
The Potency was inconclusive: 35.5 µM [inhibitor, single point].

Which Potency does the source give for `CCOC(=O)C1CCN(c2ccc(C(N)=O)cc2[N+](=O)[O-])CC1` here?
The Potency was inconclusive: 1 µM [inhibitor, partial curve, poor fit].

For `CC(=O)c1ccc(NC2=C(N3CCOCC3)C(=O)c3ccccc3C2=O)cc1`, which Potency is on record?
The Potency was inconclusive: 6.51 µM [inhibitor, full curve].

With `COc1ccccc1NC(=O)N(CCN(C)C)Cc1cc2cc(C)ccc2[nH]c1=O` as the compound, how does the Potency read?
The Potency was inconclusive: 25.1 µM [inhibitor, single point].

For `Cn1c(N)c(S(=O)(=O)c2ccc(Br)cc2)c2nc3ccccc3nc21`, which Potency is on record?
The Potency was active: 6.31 µM.

For `Cc1cnc(C(=O)NNC(=O)c2ccc(Br)cc2)cn1`, which Potency is on record?
The Potency was inconclusive: 12.6 µM [inhibitor, partial curve, poor fit].

For `COc1ccc(NC(=O)c2sc3nc(N4CCOCC4)c4c(c3c2N)CCCC4)c(OC)c1`, which Potency is on record?
Its Potency is inconclusive: 0.794 µM [activator, partial curve, poor fit].

Which Potency does the source give for `Cc1cc(-n2c(C)cc(C(=O)CSc3ccccn3)c2C)no1` here?
The Potency was inconclusive: 0.501 µM [activator, full curve, poor fit].

For `CCNC(=S)N1CCC(NC(=O)c2ccco2)CC1`, which Potency is on record?
Its Potency is inconclusive: 5.01 µM [activator, full curve, poor fit].

With `COc1ccc(CNC(=O)CSc2nnc3c(n2)[nH]c2ccccc23)cc1` as the compound, how does the “activity change, negative = inhibition” value read?
Its value is inactive: 0.19% [at 46.1 µM].

With `CCOc1cc(C(=O)N/N=C/C2CC=CCC2)cc(OCC)c1OCC` (stereo not given) as the compound, how does the Potency read?
The Potency was inconclusive: 5.62 µM [inhibitor, single point].

With `O=C(OCc1c(F)cccc1Cl)c1cc([N+](=O)[O-])ccc1N1CCOCC1` as the compound, how does the “activity change, negative = inhibition” value read?
The value was inactive: -14% [at 46.1 µM].

Which Potency does the source give for `Cc1cccc(C2N=C(N)Nc3nc4ccccc4n32)c1` (stereo not given) here?
The Potency was inconclusive: 3.16 µM [inhibitor, single point].

Which “activity change, negative = inhibition” value does the source give for `Cc1ccc(Nc2nc(COC(=O)COc3ccc(C=O)cc3)cs2)cc1` here?
The value was inactive: -14.8%.

Which “activity change, negative = inhibition” value does the source give for `CCOc1ccc(Nc2oc(-c3cccc(Cl)c3)nc2C#N)cc1` here?
Its value is inactive: -28.6%.

With `CCn1nc(C)c(NC(=O)Nc2cccc(Cl)c2Cl)c1C` as the compound, how does the Potency read?
Its Potency is inconclusive: 1 µM [inhibitor, full curve, poor fit].

For `Cc1nn(-c2cc(N(S(C)(=O)=O)S(C)(=O)=O)c(Cl)cc2Cl)c(=O)n1C`, which Potency is on record?
Its Potency is inconclusive: 1.12 µM [activator, full curve, poor fit].

For `C/C(=N/NC(=O)c1cccs1)c1ccco1`, which Potency is on record?
The Potency was inconclusive: 2.24 µM [activator, partial curve, poor fit].

With `CS(=O)(=O)c1ccc2nc(NC(=O)C3COc4ccccc4O3)sc2c1` (stereo not given) as the compound, how does the Potency read?
Its Potency is inconclusive: 6.31 µM [activator, single point].

For `O=C1C2CC=CCC2C(=O)N1CC1CCCO1` (stereo not given), which Potency is on record?
Its Potency is inconclusive: 2.31 µM [inhibitor, partial curve].

For `COCc1ccc(C(=O)N2CCCC(N3CCN(c4ccccc4C)CC3)C2)s1` (stereo not given), which Potency is on record?
Its Potency is inconclusive: 0.631 µM [inhibitor, partial curve, poor fit].

For `COc1ccccc1-c1nc(-c2cccc(C)c2)no1`, which Potency is on record?
The Potency was inconclusive: 25.1 µM [inhibitor, single point].

For `COc1cc(/C=C2/SC(=S)N(c3c(C)n(C)n(-c4ccccc4)c3=O)C2=O)ccc1O`, which Potency is on record?
The Potency was inconclusive: 8.91 µM [inhibitor, partial curve, poor fit].

With `Cc1ccc(C2(C)NC(=O)N(CC(=O)NCc3cccs3)C2=O)cc1` (stereo not given) as the compound, how does the “activity change, negative = inhibition” value read?
Its value is inactive: 16%.

Which “activity change, negative = inhibition” value does the source give for `S=c1[nH]nc(-c2ccc3ccccc3n2)n1-c1ccccc1Cl` here?
The value was inactive: -2.29% [at 46.1 µM].

For `CCOC(=O)c1cccc(Nc2nc(C)cc(C)n2)c1`, which “activity change, negative = inhibition” value is on record?
The value was inactive: 12.9% [at 46.1 µM].

Which “activity change, negative = inhibition” value does the source give for `Nc1cc(Nc2ccccc2)ccn1` here?
The value was inactive: -25.9% [at 46.1 µM].

Which “activity change, negative = inhibition” value does the source give for `O=C(O)CSc1ncnc2sc3c(c12)CCCC3` here?
The value was inactive: 8.84% [at 46.1 µM].

For `CN(C)c1ccc(NC(=S)N2CCN(c3ncc(C(F)(F)F)cc3Cl)CC2)cc1`, which Potency is on record?
Its Potency is inconclusive: 6.31 µM [activator, single point].

Which “activity change, negative = inhibition” value does the source give for `Cn1c(=O)oc2cc(S(=O)(=O)NC(Cc3ccccc3)C(=O)NCc3ccccc3Cl)ccc21` (stereo not given) here?
Its value is inactive: 25.9% [at 46.1 µM].

With `Fc1ccc(COc2ccc(Br)cc2CNCc2ccncc2)cc1` as the compound, how does the Potency read?
Its Potency is inconclusive: 29.1 µM [inhibitor, single point].

For `O=C(NCCc1ccccc1)c1ccc2c(c1)OCCCO2`, which Potency is on record?
Its Potency is inconclusive: 1.12 µM [inhibitor, full curve, poor fit].

With `CCc1ccc(C(=O)c2cn(CC(=O)Nc3ccc4c(c3)OCO4)c3ccc(F)cc3c2=O)cc1` as the compound, how does the “activity change, negative = inhibition” value read?
The value was inactive: -21.9% [at 46.1 µM].

Which “activity change, negative = inhibition” value does the source give for `COc1ccc(/C=C/c2nc(-c3ccccc3O)n[nH]2)cc1OC` here?
Its value is inactive: -2.3%.

Which Potency does the source give for `CN(CC(=O)Nc1ccc(OC(F)(F)F)cc1)S(=O)(=O)c1cnc[nH]1` here?
Its Potency is inconclusive: 7.08 µM [activator, partial curve, poor fit].

For `C=C(C)CNC(=S)NNC(=O)c1cc(C)oc1C`, which Potency is on record?
The Potency was inconclusive: 0.708 µM [inhibitor, partial curve, poor fit].
